Results: PubChem BioAssay AID588499 (NMMLSC, 2011)
In all, about 360,000 compounds went through this assay and about 610 (0.17%) were called active. Inconclusive means that the source gave no clear call. Such entries were picked first, then a sample of the others. Rule as the data show it: active = inhibition above about 30%; inconclusive = no clear call, values can overlap the other calls; inactive = below that.

These compounds were tested on Botulinum neurotoxin type A light chain protease (Clostridium botulinum A str. ATCC 3502) (assay: blockers of BoNT/A LC substrate cleavage – biochemical, flow cytometry, MLPCN library, primary screen (AID 588499; also: plate controls were buffer without enzyme for full effect and enzyme alone for no effect)). Settings: multiplex microsphere protease substrate cleavage, at 10 µM, hits give high values.
In the case of Cn1ncc(Br)c1C(=O)NC1CCCCCC1, the inhibition is reported as inactive: -1.1%.
Cc1cccc(Oc2nc(-c3ccncc3)nc3ccccc23)c1 was tested, and the inhibition was inconclusive: -55.5%.
With CCOC(=O)c1ccc(NS(=O)(=O)c2cc(-c3nnnn3CC)ccc2OC)cc1 the inhibition was inconclusive: 2.8%.
O=C(NCc1ccccc1)c1n[nH]nc1-c1ccccc1O was tested, and the inhibition was inconclusive: 14.5%.
In the case of O=C(Nc1ccccc1)Nc1ccccc1C(=O)NCCCN1CCOCC1, the inhibition is reported as inconclusive: -51.5%.
In the case of Cc1ccc(Oc2cc(-n3nc(C)cc3C)ncn2)cc1, the inhibition is reported as inconclusive: 0.7%.
For Cc1cc(C)n(S(=O)(=O)c2cccc(Cl)c2Cl)n1, the inhibition was inconclusive: 0.6%.
With O=[N+]([O-])c1ccc(Cl)c(/C=N/NC(=S)Nc2ccccc2)c1 the inhibition was inconclusive: -3.2%.
For COc1ccc2nc(C(F)(F)Cl)c(C#N)c(N)c2c1, the inhibition was inconclusive: -42.1%.
For O=C(NCCN1CCOCC1)N1CCOCC1, the inhibition was inconclusive: 1.8%.
For Cc1ccc(C2/C(=C(\O)c3c(C)nc4c(C)cccn34)C(=O)C(=O)N2CCN(C)C)o1 (stereo not drawn), the inhibition was inconclusive: -4.7%.
With COc1ccc(N2C(=O)C3CCCCC3C2=O)cc1NC(=O)c1ccccc1 (stereo not drawn) the inhibition was inactive: -0.3%.
In the case of CCCc1cc(=O)[nH]c(SCc2cccc(C)c2)n1, the inhibition is reported as inconclusive: -2.8%.
With CC(Sc1nnc(C2CC2)n1C1CC1)C(=O)c1ccc(Br)cc1 (stereo not drawn) the inhibition was inconclusive: 1.6%.
In the case of Cc1nc(N2CCN(Cc3ccc4c(c3)OCO4)CC2)nc2c1C(=O)CC(c1ccco1)C2 (stereo not drawn), the inhibition is reported as inconclusive: -2.3%.
With Cc1ccc(-c2ccc(/C=N/n3cnnc3)o2)cc1 the inhibition was inconclusive: -21.2%.
In the case of COc1ccc(C)cc1S(=O)(=O)N1CCC2(CC1)OCCN2S(=O)(=O)c1cccs1, the inhibition is reported as inactive: 0.7%.
Cc1nn(C)c(C(=O)N2CCc3ccccc32)c1Cl was tested, and the inhibition was inconclusive: 0.9%.
For COc1cc(NC(=O)Cc2nn(C)c(=O)c3ccccc23)cc(OC)c1OC, the inhibition was inconclusive: -3.2%.
In the case of O=C(CN(c1ccc(F)cc1)S(=O)(=O)c1ccc2c(c1)OCCO2)NCC1CCCO1 (stereo not drawn), the inhibition is reported as inactive: 1.2%.
For CCNC(=S)N/N=C/c1sc(N2CCCCC2)nc1-c1cccs1, the inhibition was inconclusive: 6.1%.
Cc1ccc(NC(=O)CSc2nnc(-c3cnccn3)n2-c2ccccc2)cc1 was tested, and the inhibition was inconclusive: -2.5%.
For O=C(Nc1cccc([N+](=O)[O-])c1)c1ccc2nc(N3C(=O)CCC3=O)sc2c1, the inhibition was inconclusive: -5.7%.
For CCN1CCN(C(=O)CN(C)S(=O)(=O)c2ccc(Cl)cc2)CC1, the inhibition was inconclusive: -0.5%.
In the case of CCN(CC(=O)Nc1cc(S(=O)(=O)N2CCOCC2)ccc1C)Cc1ccccc1, the inhibition is reported as inconclusive: -4.7%.
For Cc1c(-c2ccccc2)cn2c1-c1ccc(C)n1CC2, the inhibition was inconclusive: 7.1%.
For Cc1ccc(C(=O)NCCCN2CCOCC2)c(Cl)c1, the inhibition was inconclusive: -6.1%.
COc1ccccc1CC1(C)NC(=O)N(CC(=O)N2CCc3ccccc3C2)C1=O (stereo not drawn) was tested, and the inhibition was inconclusive: -3%.
For Oc1c(N=Nc2ccc(F)cc2)ccc2ccccc12, the inhibition was inactive: -2.8%.
In the case of COC(=O)c1nn(-c2ccc(F)cc2)ccc1=O, the inhibition is reported as inconclusive: 16.4%.
In the case of CCC(=O)N1CCc2cc(S(=O)(=O)NCCC(=O)N3CCc4ccccc4C3)ccc21, the inhibition is reported as inactive: 0%.
CN(c1cccc(NC(=O)c2ccc(CN3CCc4ccccc4C3)cc2)c1)S(C)(=O)=O was tested, and the inhibition was inconclusive: 8.4%.
In the case of CS(=O)(=O)N(CC(=O)Nc1ccc(Cl)c(Cl)c1)C1CCCCC1, the inhibition is reported as inconclusive: -5%.
For Cc1ccc(S(=O)(=O)Oc2cccc(/C=N/n3cnnc3)c2)cc1, the inhibition was inactive: -0.2%.
With CCOC(=O)c1c(-c2ccc(C)o2)csc1NC(=S)NC(=O)c1cccs1 the inhibition was inactive: -0.6%.
With CCCNC(=O)Cn1c(=O)/c(=C\c2ccc(-c3cccc([N+](=O)[O-])c3)o2)s/c1=C\C(=O)C(C)(C)C the inhibition was active: 32.6%.
For COc1ccc(C(=O)NC(=O)Nc2ncccc2C)cc1, the inhibition was inconclusive: 0.4%.
In the case of COc1cc(Br)c(C2CC(=O)Nc3cc(OC)c(OC)cc32)cc1OC (stereo not drawn), the inhibition is reported as inconclusive: -1.6%.
With CCNc1nc2cccnc2s1 the inhibition was inconclusive: 4.4%.
For COc1ccc(S(=O)(=O)NC2CCCCCC2)cc1C(N)=O, the inhibition was inactive: -0.4%.
With CC1=NCC(C)c2ccccc21 (stereo not drawn) the inhibition was inconclusive: 0.1%.
With N#C/C(=C/c1ccc(-c2ccccc2)o1)c1nc(-c2cccs2)cs1 the inhibition was active: 47.5%.
In the case of COC(=O)N1CCN(c2ccc(C(C)=O)cc2)CC1, the inhibition is reported as inconclusive: 11.3%.
In the case of Cc1[nH]c2ccccc2c1/C=C/C(=O)c1ccncc1, the inhibition is reported as inconclusive: 4%.
In the case of COc1ccc(C(=O)NCC(=O)Nc2ccc(F)cc2)cc1OC, the inhibition is reported as inconclusive: -1.9%.
For COCc1c(C(=O)OC)nnn1-c1ccccc1, the inhibition was inconclusive: -0.4%.
CCOC(=O)c1c(NC(=O)CN2C(=O)NC3(CCCCC3C)C2=O)sc(C)c1CC (stereo not drawn) was tested, and the inhibition was inactive: 3%.
For Cc1cc(C)n(-c2nc3ccccc3nc2N2CCCCCC2)n1, the inhibition was inactive: 16.2%.
With CC(=O)Nc1ccccc1NC(=O)C/C(C)=N/NC(=O)Cc1cccc2ccccc12 the inhibition was inactive: 0.3%.
With CN(c1ccccc1)S(=O)(=O)c1ccc2ccccc2c1 the inhibition was inconclusive: -5.7%.
For O=C(Nc1ccc2c(c1)OCCO2)c1cc(-c2ccccc2)nc2ccccc12, the inhibition was inconclusive: -6.5%.
CCOc1cc(-c2nnc(-c3ccco3)o2)cc(OCC)c1OCC was tested, and the inhibition was inactive: 0.2%.
With c1ccc(-c2ccccc2-n2cnnn2)cc1 the inhibition was inconclusive: 27.4%.
With CCNc1ccc(Br)cc(C(=O)/C=C/c2ccccc2Cl)c1=O the inhibition was active: 51.8%.
With O=C(CCS(=O)(=O)c1ccc(Cl)cc1)Nc1nnc(-c2ccco2)o1 the inhibition was inconclusive: -0.6%.
NNC(=O)c1nc(-c2ccccc2)n2c1CCCCC2 was tested, and the inhibition was inconclusive: 1.1%.
O=C(O)CCC(=O)N1CCN(c2ncccc2C(F)(F)F)CC1 was tested, and the inhibition was inconclusive: -7.2%.
CCC1(c2ccccc2)NC(=O)N(CC(=O)Nc2ccc(S(N)(=O)=O)cc2)C1=O (stereo not drawn) was tested, and the inhibition was inactive: -1.6%.
For COc1ccc(-c2nc(C#N)c(NCc3ccccc3Cl)o2)cc1, the inhibition was inconclusive: 3.8%.
With Cc1ccc(-n2c(Cn3nc(C(F)(F)F)cc3C)n[nH]c2=S)cc1 the inhibition was inconclusive: -4.3%.
For O=C(NCc1ccco1)c1cc2sccc2n1Cc1ccc(F)cc1, the inhibition was inconclusive: -0.4%.
For O=C(NC12CC3CC(CC(C3)C1)C2)c1ccc(N2CCNCC2)c([N+](=O)[O-])c1, the inhibition was inconclusive: -30.1%.
COc1ccc(Br)cc1CN1CCSCC1 was tested, and the inhibition was inconclusive: -6.8%.
With COc1ccccc1CN1CCNC(=O)C1CC(=O)NCC1CCOCC1 (stereo not drawn) the inhibition was inactive: -0.8%.
With CCC(=O)NNC(=O)c1cc(COc2cc(Cl)cc(Cl)c2)on1 the inhibition was inconclusive: -13.3%.
In the case of CN1N=C(C(C)(C)C)CSC1=Nc1ccc(F)cc1, the inhibition is reported as inconclusive: 20.1%.
In the case of O=C(c1cnn2c(C(F)(F)F)cc(-c3ccc(Br)cc3)nc12)N1CCOCC1, the inhibition is reported as inactive: -0.2%.
With COc1ccccc1-c1noc(CCC(=O)Nc2cc(C(F)(F)F)ccc2Cl)n1 the inhibition was inconclusive: -0.2%.
For Nc1c(C(=O)N2CCOCC2)sc2nc(N3CCOCC3)c3c(c12)CCCC3, the inhibition was inconclusive: 12.1%.
With CC1CCN(C(=O)CSc2nnc(-c3cccnc3)n2C2CCCCC2)CC1 the inhibition was inconclusive: -5%.
For COc1cccc(-c2csc(N3CCN(C(=O)Nc4ccccc4OC)CC3)n2)c1, the inhibition was inconclusive: 0.8%.
O=C1C(Cc2ccc3[nH]ccc3c2)NC(=S)N1c1ccccc1 (stereo not drawn) was tested, and the inhibition was inconclusive: 1.7%.
O=C(C[n+]1ccc(/C=N/O)cc1)N1CCCCC1 was tested, and the inhibition was inconclusive: -13.8%.
For CC1CC(C)CN(CC(=O)c2c[nH]c3ccccc23)C1 (stereo not drawn), the inhibition was inactive: 1.7%.
For Cc1ccc(S(C)(=O)=N/C=C2\C(=O)c3sccc3N(C)S2(=O)=O)cc1 (stereo not drawn), the inhibition was inconclusive: 6.3%.
In the case of CCOC(=O)c1c(NC(=O)CSc2nc3ccccc3o2)sc(C)c1C, the inhibition is reported as inconclusive: 8.1%.
For CCCCCn1c(=O)c(-c2nc3ccccc3[nH]2)c(O)c2ccccc21, the inhibition was inactive: -2.2%.
For Cc1cc(C)n(-c2nc3ccccc3nc2N2CCC(C)CC2)n1, the inhibition was inconclusive: 13.8%.
Nn1c(SCc2cccc(C(F)(F)F)c2)nnc1-c1ccco1 was tested, and the inhibition was inconclusive: 4.4%.
CS(=O)(=O)N(CC(=O)NCC1CCCO1)Cc1ccc(Cl)cc1 (stereo not drawn) was tested, and the inhibition was inactive: -0.1%.
In the case of CCCCN(C(=O)Cc1coc2cc(C)c(C)cc12)c1c(N)n(Cc2ccccc2)c(=O)[nH]c1=O, the inhibition is reported as inconclusive: 0.8%.
In the case of CCNC(=O)C1CCCN(C(=O)c2ccc(N(C)C)cc2)CC1 (stereo not drawn), the inhibition is reported as inactive: 0.5%.
CN(c1ccccc1)c1nc(N)c([N+](=O)[O-])c(N2CCOCC2)n1 was tested, and the inhibition was inconclusive: 2.8%.
With O=C1c2ccccc2C(=O)N1c1ccc(Cc2ccncc2)cc1 the inhibition was inconclusive: 14.4%.
In the case of CS(=O)(=O)N1N=C(c2ccccc2)CC1c1ccc2c(c1)OCO2 (stereo not drawn), the inhibition is reported as active: 70.4%.
For CCC1C(C#N)=C(SC)NC2=C1C(=O)CC(C)(C)C2 (stereo not drawn), the inhibition was inconclusive: 23.6%.
In the case of O=C(NCCc1ccccc1Cl)C1CCC(=O)N(CC2CCCCC2)C1 (stereo not drawn), the inhibition is reported as inactive: 1.3%.
With Cc1cc(C)nc(SCC(=O)c2ccc(F)c(C)c2)n1 the inhibition was inactive: -1%.
With CC(C)/C=N/Nc1nc2c(c(=O)n(C)c(=O)n2C)n1C the inhibition was inconclusive: -4%.
With COc1ccc(C(CC(=O)O)NC(C)=O)cc1OC (stereo not drawn) the inhibition was inactive: -0.7%.
With O=C(NC1CCN(Cc2ccccc2)CC1)c1ccc2c(c1)OCCCO2 the inhibition was inconclusive: -32.7%.
In the case of OC(c1cccc(CN2CCCCC2)c1)c1ncc(-c2cccc3ccccc23)[nH]1 (stereo not drawn), the inhibition is reported as inactive: -0.5%.
For Cc1ccc(NC(C)c2cc(Cl)ccc2O)cc1 (stereo not drawn), the inhibition was inconclusive: 0.7%.
